Data from PubChem BioAssay AID540256 (National Center for Advancing Translational Sciences (NCATS), 2011).
Out of some 300,000 compounds screened, about 3,700 (1.2%) were called active. The inconclusive results got no clear call from the source; some entries with a clear call stand among them for comparison. The call rests on the fitted dose curve; tested in HEK293 cells. A potency beside an inconclusive call is a rough fit, not a confirmed value.
On the % scale 0 is the no-effect control and ±100 the full control effect; potency means the concentration at half of the fitted maximal effect.

Test: qHTS for Inhibitors of binding or entry into cells for Lassa Virus; further: nearly all actives have a fitted effect of over 50% in size
Conditions: Lassa virus pseudotype entry inhibition, cell reporter; activity change, negative = inhibition: at 37.9 µM (top of the series) unless noted
With `O=[N+]([O-])c1ccccc1S(=O)(=O)N1CCN(C2CCN(Cc3ccccc3)CC2)CC1` the Potency was inconclusive: 0.708 µM [activator, partial curve, poor fit].
For `O=C(CSc1nnc(CNc2ccc(F)cc2)n1Cc1ccccc1)NCc1ccco1`, the “activity change, negative = inhibition” value was inactive: 0.955%.
For `COc1ccc(Cn2nnnc2CN(Cc2cc3ccc(C)cc3[nH]c2=O)C2CCCC2)cc1`, the Potency was inconclusive: 29.1 µM [inhibitor, single point].
In the case of `O=C(CCN1CCN(c2ccccc2)CC1)N/N=C/c1ccccc1OC(F)F`, the Potency is reported as inconclusive: 5.01 µM [inhibitor, full curve, poor fit].
For `N#Cc1cncc(-c2ccc3c(c2)OCCOCCOCCOCCOCCO3)n1`, the Potency was inconclusive: 1.26 µM [inhibitor, single point].
With `O=C(NCCc1ccc(F)cc1)C(=O)Nc1cc2c3c(c1)CC(=O)N3CCC2` the Potency was inconclusive: 35.5 µM [inhibitor, single point].
For `O=C(c1cc(-c2ccncc2)nc2ccc(Cl)cc12)N1CCN(C(=O)C2CCCO2)CC1` (configuration not stated), the Potency was inconclusive: 35.5 µM [inhibitor, single point].
For `Oc1ccccc1N1CCN(c2ncnc3scc(-c4ccc(F)cc4)c23)CC1`, the Potency was inconclusive: 7.94 µM [inhibitor, partial curve, poor fit].
For `N#Cc1ccc2c(c1)NC(=O)C1CCCN21` (configuration not stated), the “activity change, negative = inhibition” value was inactive: -0.537%.
With `COc1ccc(N(CC(=O)Nc2cccc(SC)c2)S(C)(=O)=O)cc1Cl` the Potency was inconclusive: 35.5 µM [inhibitor, single point].
In the case of `CCN1C(=O)c2ccccc2Sc2ccc(NC(=O)Nc3ccccc3OC)cc21`, the Potency is reported as inconclusive: 11.2 µM [inhibitor, partial curve, poor fit].
In the case of `C(=N\Nc1ccccn1)/c1ccc2c(c1)OCCO2`, the Potency is reported as inconclusive: 10 µM [inhibitor, partial curve, poor fit].
In the case of `COc1ccc(Cn2c(CCC(=O)Nc3cccc(OC)c3)nc3cccnc32)cc1`, the Potency is reported as inconclusive: 10 µM [inhibitor, partial curve, poor fit].
In the case of `CCC1=NN(C(=O)C(=O)Nc2ccc(OC)cc2)C(O)(C(F)(F)F)C1` (configuration not stated), the Potency is reported as inconclusive: 20.6 µM [activator, single point].
For `CC(Oc1ccc(Br)cc1)C(=O)Nc1cc(S(=O)(=O)N2CCOCC2)ccc1N1CCCC1` (configuration not stated), the Potency was inconclusive: 12.6 µM [inhibitor, single point].
For `Cc1ccc(S(=O)(=O)N2Cc3ccccc3CC2C(=O)Nn2cnnc2)cc1` (configuration not stated), the “activity change, negative = inhibition” value was inactive: 10.1%.
For `O=C(Cc1ccccc1)n1nc(-c2ccco2)nc1SCc1ccccc1`, the “activity change, negative = inhibition” value was inactive: 12%.
For `CCOC(=O)c1nnn(-c2nonc2N)c1COc1c(C=O)cccc1OC`, the Potency was inconclusive: 25.1 µM [inhibitor, single point].
In the case of `O=C(CCCOc1ccc(Cl)cc1Cl)NNC(=O)C1CCC1`, the Potency is reported as inconclusive: 25.1 µM [inhibitor, single point].
In the case of `COc1ccccc1CNC(=O)CCC1N=C2c3ccccc3N=C(SCC(N)=O)N2C1=O` (configuration not stated), the “activity change, negative = inhibition” value is reported as inactive: -4.15% [at 46.1 µM].
With `O=C1NC(c2ccccc2)=C(c2nc3ccccc3s2)C(c2ccc(O)cc2)N1` (configuration not stated) the “activity change, negative = inhibition” value was inactive: -30.8% [at 14.3 µM].
With `COC(=O)C1=C(C)NC(=O)/C1=C\c1cc(C)n(-c2ccccc2C)c1C` the Potency was inconclusive: 0.316 µM [activator, partial curve, poor fit].
In the case of `Cc1nn(-c2ccc(F)cc2)c(Cl)c1/C=N/NC(=O)c1ccc(O)cc1`, the Potency is reported as inconclusive: 35.5 µM [inhibitor, partial curve, poor fit].
In the case of `Cn1c(=O)c2c(nc(NCc3ccco3)n2C/C=C/c2ccccc2)n(C)c1=O`, the Potency is reported as active: 10 µM.
In the case of `CC(=O)c1cccc(NC(=O)C2=CC(c3ccc4c(c3)OCO4)=NS(=O)(=O)N2C)c1`, the Potency is reported as inconclusive: 35.5 µM [inhibitor, single point].
With `COc1ccc(/C=N/Nc2nc3ccccc3o2)cc1O` the Potency was inconclusive: 23.1 µM [inhibitor, single point].
With `Cc1ccc(NC(=O)CCC(=O)NNC(=O)COc2cccc3ccccc23)c(C)c1` the “activity change, negative = inhibition” value was inactive: 7.19%.
For `Cc1c(Cl)cccc1NC(=O)Cn1cc(C(=O)C2CCCCC2)c2ccccc21`, the Potency was inconclusive: 7.08 µM [inhibitor, partial curve, poor fit].
With `Cc1cc(C)n(CC(=O)NNC(=O)CCNC(=O)c2ccccc2Cl)n1` the “activity change, negative = inhibition” value was inactive: -3.26%.
With `Cc1cc(NC(=O)CCC(=O)N(CC(=O)NC2CCCC2)c2ccc(C)c(F)c2)no1` the “activity change, negative = inhibition” value was inactive: 20.7% [at 46.1 µM].
With `O=C1NC(=O)N(Cc2ccc(F)cc2)C(=O)/C1=C\c1ccc(N2CCCC2)cc1` the Potency was inconclusive: 3.98 µM [inhibitor, single point].
For `CCc1ccc(Nc2ncc3c(n2)CC(c2ccco2)CC3=O)cc1` (configuration not stated), the Potency was inconclusive: 11.2 µM [inhibitor, partial curve, poor fit].
With `CN(C(=O)COC(=O)/C=C/c1ccc2ccccc2n1)c1c(N)n(Cc2ccccc2)c(=O)[nH]c1=O` the Potency was inconclusive: 25.1 µM [inhibitor, single point].
In the case of `C=CCc1c(NCCO)nc(C)[nH]c1=O`, the “activity change, negative = inhibition” value is reported as inactive: -16.2%.
With `COc1ccc(C2N(c3ccc(Cl)cc3)N=C(C(C)=O)N(C)N2C(C)=O)cc1` (configuration not stated) the Potency was inconclusive: 35.5 µM [inhibitor, single point].
For `Cc1ccc(NC(=O)CSC2=Nc3ccccc3C3=NC(Cc4ccccc4)C(=O)N23)cc1C` (configuration not stated), the Potency was inconclusive: 12.6 µM [inhibitor, partial curve, poor fit].
For `O=C(Nc1nc2ccc(F)cc2s1)c1cccs1`, the Potency was inconclusive: 12.6 µM [inhibitor, partial curve, poor fit].
With `CCC(C(=O)Nc1ccc2[nH]ncc2c1)c1ccccc1` (configuration not stated) the Potency was inconclusive: 22.4 µM [inhibitor, partial curve, poor fit].
In the case of `CCCCN(CCCNC(=O)c1ccc(Sc2ccc(Cl)cc2)c(NC(C)=O)c1)c1ccccc1`, the Potency is reported as inconclusive: 22.4 µM [inhibitor, single point].
With `Cc1cc2c(cc1S(=O)(=O)CCC(=O)N1CCCC(C)C1)OCC(=O)N2` (configuration not stated) the “activity change, negative = inhibition” value was inactive: -11.4% [at 46.1 µM].
In the case of `COc1ccc(Cc2nnc(NC(=O)c3cccc([N+](=O)[O-])c3C)s2)cc1`, the “activity change, negative = inhibition” value is reported as inactive: -14.8%.
With `COc1cccc(CNc2nccn(-c3cc(C)cc(C)c3)c2=O)c1` the “activity change, negative = inhibition” value was inactive: -4.46% [at 46.1 µM].
With `COc1ccc(NC(=O)Cn2c(=O)n(Cc3ccco3)c(=O)c3cc(OC)c(OC)cc32)cc1` the Potency was inconclusive: 35.5 µM [inhibitor, single point].
In the case of `CCOC(=O)c1cc2sccc2n1CC(=O)N1CCCc2ccccc21`, the Potency is reported as inconclusive: 29.1 µM [inhibitor, single point].
For `O=C(c1ccccc1)c1ccc(OCCn2cnc3ccccc3c2=O)cc1`, the Potency was active: 25.1 µM.
With `COCCN1C(=O)c2cc(C(=O)Nc3cccc(F)c3)ccc2C1Nc1cccc(F)c1` (configuration not stated) the Potency was inconclusive: 1.3 µM [inhibitor, full curve].
For `CN(Cc1ccccn1)C(=O)c1ccc2nc(Cc3cccc(Cl)c3)oc2c1`, the “activity change, negative = inhibition” value was inactive: -29%.
With `O=C(OCCN1CCOCC1)c1cccc(F)c1` the Potency was inconclusive: 6.31 µM [inhibitor, single point].
In the case of `CC(NC(=O)c1c2c(nc3ccccc13)C(=O)N(C1CCCCC1)C2)c1ccccc1` (configuration not stated), the Potency is reported as inconclusive: 25.1 µM [inhibitor, single point].
In the case of `Cc1ccc(OCCCOc2cccc3cccnc23)cc1C`, the “activity change, negative = inhibition” value is reported as inactive: 3.4%.
With `O=C(Nc1cccnc1)c1cc(Br)c(Br)s1` the “activity change, negative = inhibition” value was inactive: 18.9%.
For `CCN(CC)CCNC(=O)c1c(C)oc2cc(Br)c(OC)cc12`, the Potency was inconclusive: 20.6 µM [inhibitor, partial curve, poor fit].
With `CC(C)OCCCNC(=O)[C@H]1N2C(=O)c3ccccc3C2SC1(C)C` (some centres not stated) the Potency was inconclusive: 0.708 µM [inhibitor, full curve, poor fit].
In the case of `O/N=C1/CCCCC1c1ccccn1` (configuration not stated), the “activity change, negative = inhibition” value is reported as inactive: 17%.
For `COc1ccc(NCc2nnc(SCC(=O)Nc3ccc(OC)cc3OC)o2)cc1`, the activity change, negative = inhibition was inconclusive: 14.8% [activator].
In the case of `c1ccc(CN2CCC(N3CCC(N4CCCCCC4)CC3)CC2)cc1`, the Potency is reported as inconclusive: 10 µM [inhibitor, partial curve, poor fit].
For `Cc1ccc(S(=O)(=O)N2CCCCC2)cc1NC(=O)COC(=O)C1CC2C=CC1C2` (configuration not stated), the Potency was inconclusive: 5.62 µM [inhibitor, single point].
In the case of `OC(CNC1CCCc2ccccc21)COc1c(Cl)cccc1Cl` (configuration not stated), the Potency is reported as inconclusive: 29.1 µM [inhibitor, single point].
With `COc1ccccc1S(=O)(=O)Cc1ccc(C(=O)N2CCN(c3cccc(Cl)c3)CC2)o1` the Potency was inconclusive: 18.3 µM [inhibitor, single point].
With `O=C1CN(C(=O)c2cc3ccccc3oc2=O)C(c2ccc(F)cc2)c2cc(Br)ccc2N1` (configuration not stated) the Potency was inconclusive: 0.58 µM [inhibitor, full curve, poor fit].
In the case of `OCC1(Cc2ccccc2)CCN(Cc2cnc(-c3ccc(Cl)cc3)nc2)CC1`, the Potency is reported as inconclusive: 7.08 µM [inhibitor, partial curve, poor fit].
In the case of `CCc1ccc(NC(=O)CN2CCSc3ccc(S(=O)(=O)N4CCCC4)cc32)cc1`, the Potency is reported as inconclusive: 35.5 µM [inhibitor, single point].
For `O=C(CCC(=O)Nc1nnc(C2CCCCC2)s1)NCC1CCCO1` (configuration not stated), the “activity change, negative = inhibition” value was inactive: 3.62%.
In the case of `Cc1ccc(C(=O)n2nnc3ccccc32)cc1[N+](=O)[O-]`, the Potency is reported as inconclusive: 5.62 µM [activator, partial curve, poor fit].
For `CC1CN(C)C(C)c2c1oc1ccc([N+](=O)[O-])cc21` (configuration not stated), the “activity change, negative = inhibition” value was inactive: 1.08%.
In the case of `CNc1nc(OC)nc(N(C#N)CN2C(=O)c3ccccc3S2(=O)=O)n1`, the “activity change, negative = inhibition” value is reported as inactive: 0.831%.
For `S=c1[nH]nc(COc2ccccc2)n1/N=C/c1ccc(Cl)cc1`, the Potency was inconclusive: 4.47 µM [inhibitor, full curve, poor fit].
